Laboratory results as given in PubChem BioAssay AID485314 (National Center for Advancing Translational Sciences (NCATS), 2010).
In all, about 340,000 compounds went through this assay and about 4,500 (1.3%) were called active. This list was built around the results that the source calls inconclusive (neither active nor inactive); the mix of calls is not that of the screen. The call rests on the fitted dose curve; in most records, active means well fitted inhibition curve with a large enough effect; inconclusive means small, poorly fitted or top-dose-only effect, or another doubt; inactive means no such curve, though single readings can be large or run the other way. Where the call is inconclusive, the potency comes from a doubtful curve fit.

target: DNA polymerase beta (Homo sapiens) (UniProt P06746); assay: qHTS Assay for Inhibitors of DNA Polymerase Beta; conditions: Pol beta primer extension/strand displacement, fluorescence kinetic; activity change, negative = inhibition: at 114 µM (top of the series)
Procedure, shortened: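 Human Pol beta at 10 nM; strand-displacement substrate 50 nM final. Compound exposure 15 min at room temperature before start, reaction 10 min at room temperature.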
On the % scale 0 is the no-effect control and ±100 the full control effect; potency means the concentration at half of the fitted maximal effect.

**Q.** How did the “activity change, negative = inhibition” value turn out when `COc1ccccc1/C=C1\S/C(=N/NC(=O)c2cccc(Br)c2)NC1=O` was run?
**A.** inactive: -27.3%

**Q.** `CC(NS(=O)(=O)c1ccc(Cl)cc1)C(=O)NCc1ccco1` (stereo unspecified) was tested. Which Potency did it give?
**A.** inconclusive: 22.4 µM [inhibitor, full curve]

**Q.** For `O=C(N/N=C/c1ccc([N+](=O)[O-])o1)C(=O)Nc1ccc(C(=O)O)cc1`, which Potency is on record?
**A.** inconclusive: 11.2 µM [inhibitor, full curve]

**Q.** With `O=S(=O)(NC1=NCCC1)c1ccc(F)cc1F` as the compound, how does the Potency read?
**A.** inconclusive: 89.1 µM [inhibitor, single point]

**Q.** For `O=C(Cc1ccc(-c2ccccc2)cc1)NCCS(=O)(=O)N1CCN(c2ccc(F)cc2)CC1`, which Potency is on record?
**A.** inconclusive: 10 µM [inhibitor, partial curve]

**Q.** For `CCOC(=O)c1cnn(-c2nc(-c3ccc(F)cc3)cs2)c1C(F)(F)F`, which “activity change, negative = inhibition” value is on record?
**A.** inactive: 21.1%

**Q.** `O=C(Nc1cc(Br)c(O)c(Br)c1)c1cccc(NC(=O)c2ccco2)c1` was tested. Which Potency did it give?
**A.** inconclusive: 79.4 µM [inhibitor, partial curve]

**Q.** For `Cc1cc(C)nc(-n2nc(C)c3c2N(Cc2ccccc2F)C(=O)CC3c2ccc(Cl)cc2)n1` (stereo unspecified), which “activity change, negative = inhibition” value is on record?
**A.** inactive: -12%

**Q.** With `CCc1cc(=O)oc2cc(C)c(CN3CCCC(C)C3)c(O)c12` (stereo unspecified) as the compound, how does the Potency read?
**A.** active: 3.16 µM

**Q.** With `O=C(O)C1Cc2ccccc2CN1S(=O)(=O)c1ccc2ccccc2c1` (stereo unspecified) as the compound, how does the “activity change, negative = inhibition” value read?
**A.** inactive: -25.4%

**Q.** For `Nc1[nH]c(N=NC(=O)c2ccccc2)c2ccccc12`, which “activity change, negative = inhibition” value is on record?
**A.** inactive: -11.6%

**Q.** For `COc1ccc(NC(=O)c2ccc(OCc3c(C)noc3C)c(OC)c2)cn1`, which Potency is on record?
**A.** inconclusive: 35.5 µM [inhibitor, single point]

**Q.** With `O=C(CN1CCN(c2ccc(O)cc2)CC1)Nc1cc(S(=O)(=O)N2CCOCC2)ccc1Cl` as the compound, how does the Potency read?
**A.** inconclusive: 35.5 µM [inhibitor, partial curve]

**Q.** With `COc1ccc(N=Nc2cc(-c3ccccc3)ccc2O)cc1` as the compound, how does the Potency read?
**A.** inconclusive: 0.891 µM [inhibitor, full curve, poor fit]

**Q.** How did the Potency turn out when `CC(C)(C)c1ccc(S(=O)(=O)/N=C2\C=C(NS(=O)(=O)c3ccccc3)C(=O)c3ccccc32)cc1` was run?
**A.** inconclusive: 70.8 µM [inhibitor, single point]

**Q.** Which Potency does the source give for `Cc1ccc(NC(=O)CSc2ccc(-c3ccco3)nn2)cc1` here?
**A.** inconclusive: 25.1 µM [inhibitor, full curve, poor fit]

**Q.** `COc1ccc(NC(=O)Nc2cc(-c3cn4cccnc4n3)ccc2C)cc1` was tested. Which “activity change, negative = inhibition” value did it give?
**A.** inactive: 0.263%

**Q.** With `O=C(NNS(=O)(=O)c1ccccc1[N+](=O)[O-])c1cc2ccccc2cc1O` as the compound, how does the Potency read?
**A.** inconclusive: 79.4 µM [inhibitor, single point]

**Q.** `COCc1nc2ccccc2n1Cc1ccc(C(C)(C)C)cc1` was tested. Which Potency did it give?
**A.** inconclusive: 79.4 µM [inhibitor, partial curve]

**Q.** With `Cc1cccc(C(=O)Nc2cc3c(cc2C)n(C)c(=O)n3C)c1` as the compound, how does the Potency read?
**A.** inconclusive: 39.8 µM [inhibitor, single point]

**Q.** `Cc1cc(C)c2nc3s/c(=C/c4ccccc4)c(=O)n3c2c1` was tested. Which “activity change, negative = inhibition” value did it give?
**A.** inactive: -1.33%

**Q.** `CCc1ccc(S(=O)(=O)Nc2cccc(-c3ccc(N4CCCCC4)nn3)c2)s1` was tested. Which “activity change, negative = inhibition” value did it give?
**A.** inactive: 2.09%

**Q.** How did the Potency turn out when `O=C(CC(=O)NC1CCCCC1)N/N=C/c1cccc2ccccc12` was run?
**A.** inconclusive: 79.4 µM [inhibitor, single point]

**Q.** How did the “activity change, negative = inhibition” value turn out when `COc1ccccc1Oc1ccc(S(=O)(=O)N2CCCCC2)cc1NC(=O)CCNC(C)=O` was run?
**A.** inactive: 1.49%

**Q.** How did the Potency turn out when `COc1ccc(NC(=O)C2CCCN(S(=O)(=O)c3c(C)[nH]c(=O)[nH]c3=O)C2)cc1OC` (stereo unspecified) was run?
**A.** inconclusive: 39.8 µM [inhibitor, single point]

**Q.** With `O=c1c2ccccc2nc(N/N=C/c2c(O)ccc3ccccc23)n1O` as the compound, how does the “activity change, negative = inhibition” value read?
**A.** inactive: 6.45%

**Q.** For `COc1cc(/C=C/C(=O)OCC(=O)Nc2ccc(C)cc2[N+](=O)[O-])ccc1O`, which “activity change, negative = inhibition” value is on record?
**A.** inactive: 9.79%

**Q.** Which Potency does the source give for `COC(=O)c1ccc(/C=N/NC(=O)c2cccc(F)c2)cc1` here?
**A.** inconclusive: 28.2 µM [inhibitor, full curve]

**Q.** With `COC(=O)c1c(NC(=O)c2ccc(OC)cc2OC)sc2c1CCCCC2` as the compound, how does the Potency read?
**A.** inconclusive: 5.01 µM [inhibitor, partial curve, poor fit]

**Q.** `COc1ccc(O)c(C(=O)c2cc(SCC(=O)O)c3nc4sc5c(c4c(=O)n3c2)CCCC5)c1` was tested. Which activity change, negative = inhibition did it give?
**A.** inconclusive: -42.8% [inhibitor]

**Q.** For `O=C(/C=C/c1ccccc1)c1cc(Br)ccc(=O)c1O`, which Potency is on record?
**A.** inconclusive: 17.8 µM [inhibitor, full curve]

**Q.** Which “activity change, negative = inhibition” value does the source give for `O=C(c1cccc2ccccc12)N1CCCCC1` here?
**A.** inactive: 37.8%

**Q.** `Oc1ccc(/C=N/N=C(c2ccccc2)c2ccccc2)c(O)c1O` was tested. Which Potency did it give?
**A.** active: 2.82 µM

**Q.** Which Potency does the source give for `COc1cc(/C=N\NC(=O)c2ccc(=O)[nH]n2)cc(OC)c1OC` here?
**A.** active: 12.6 µM

**Q.** With `CC1=CC(C)(C)NC(=S)N1c1cccc2cc(S(=O)(=O)O)ccc12` as the compound, how does the Potency read?
**A.** active: 50.1 µM

**Q.** How did the Potency turn out when `O=c1cc(-c2ccco2)oc2c1ccc1ccccc12` was run?
**A.** active: 17.8 µM

**Q.** For `COc1ccc(CN2CCN(C(=O)CC(C)C)CC2)cc1`, which Potency is on record?
**A.** inconclusive: 0.316 µM [inhibitor, full curve, poor fit]

**Q.** With `CCCS(=O)(=O)N1CC(=O)N(c2cccc(Cl)c2)C(C)(C(=O)NC2CCCCC2)C1` (stereo unspecified) as the compound, how does the “activity change, negative = inhibition” value read?
**A.** inactive: 14.7%

**Q.** For `C=CCNC(=S)N1CC2(C)CN(C(=S)NCC=C)CC(C)(C1)C2=O`, which Potency is on record?
**A.** inconclusive: 89.1 µM [inhibitor, single point]

**Q.** `CCOC(=O)N1CCc2c(sc3c2C(=O)NC(c2ccc(N(C)C)cc2)N3)C1` (stereo unspecified) was tested. Which Potency did it give?
**A.** inconclusive: 15.8 µM [inhibitor, single point]

**Q.** For `CCc1ccccc1NC(=O)CC1S/C(=N\c2nccs2)N(CC)C1=O` (stereo unspecified), which Potency is on record?
**A.** inconclusive: 5.01 µM [inhibitor, single point]

**Q.** How did the “activity change, negative = inhibition” value turn out when `COc1cc(C(=O)O)nc(OC)n1` was run?
**A.** inactive: 44.8%

**Q.** `Cc1ccc(NC(=O)CN2C(=O)S/C(=C\c3cc(C)n(-c4cccc(C(=O)O)c4)c3C)C2=O)cc1` was tested. Which Potency did it give?
**A.** active: 44.7 µM

**Q.** How did the Potency turn out when `Fc1ccccc1OCC1CCCN(Cc2nc(CC3CC3)no2)C1` (stereo unspecified) was run?
**A.** inconclusive: 0.501 µM [inhibitor, full curve, poor fit]

**Q.** Which Potency does the source give for `O=C1Nc2ccccc2Oc2cc([N+](=O)[O-])cc(Oc3ccccc3)c21` here?
**A.** inconclusive: 44.7 µM [inhibitor, partial curve]

**Q.** With `CCN(CC)CCNC(=O)C1CCN(C(=O)c2cnn(-c3ccccc3)c2-n2cccc2)CC1` as the compound, how does the Potency read?
**A.** inconclusive: 89.1 µM [inhibitor, single point]
